# The other results are listed elsewhere or left out.
# Legend:
# Test in all cases: glycan array binding signal (z-score within array); higher = stronger binding
# Settings in all cases: glycan notation: IUPAC condensed, linker removed
# [1] = target: Gal6S(b1-4)Glc6S
# Procedure, shortened: (§1)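 The binding signal is a Z-score computed within each array. Data were drawn from 3228 arrays in the Consortium for Functional Glycomics database, restricted to those with a known protein sequence. Scores were averaged over arrays of the same protein sequence at different concentrations or buffers, and over linkers, and negative values can be taken as non-binding.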
# [2] = target: Gal6S(b1-4)GlcNAc
# Procedure, shortened: as §1
# [3] = target: Gal6S(b1-4)GlcNAc6S
# Procedure, shortened: as §1
# [4] = target: GalNAc(a1-3)Gal
# Procedure, shortened: as §1
# [5] = target: GalNAc(a1-3)GalNAc
# Procedure, shortened: as §1
# [6] = target: GalNAc(a1-3)GalNAc(b1-3)Gal(a1-4)Gal(b1-4)Glc
# Procedure, shortened: as §1
# [7] = target: GalNAc(a1-3)GalNAc(b1-3)Gal(a1-4)Gal(b1-4)GlcNAc
# Procedure, shortened: as §1
# [8] = target: GalNAc(b1-3)Gal
# Procedure, shortened: as §1
# [9] = target: GalNAc(b1-3)Gal(a1-4)Gal(b1-4)GlcNAc
# Procedure, shortened: as §1
# [10] = target: GalNAc(b1-3)Gal(a1-4)Gal(b1-4)GlcNAc(b1-3)Gal(b1-4)Glc
# Procedure, shortened: as §1
# [11] = target: GalNAc(b1-3)Gal(a1-6)Gal(b1-4)Glc
# Procedure, shortened: as §1
# [12] = target: GalNAc(b1-3)GalNAc
# Procedure, shortened: as §1
# [13] = target: GalNAc(b1-3)GlcNAc
# Procedure, shortened: as §1
# [14] = target: GalNAc(b1-4)Gal(b1-4)Glc
# Procedure, shortened: as §1
# [15] = target: GalNAc(b1-4)GlcNAc
# Procedure, shortened: as §1
# [16] = target: GalNAc(b1-4)GlcNAc(b1-2)Man
# Procedure, shortened: as §1
# [17] = target: GalNAc(b1-4)GlcNAc(b1-2)Man(a1-3)[GalNAc(b1-4)GlcNAc(b1-2)Man(a1-6)]Man(b1-4)GlcNAc(b1-4)GlcNAc
# Procedure, shortened: as §1
# [18] = target: GalNAc(b1-4)GlcNAc(b1-3)GalNAc(b1-4)GlcNAc
# Procedure, shortened: as §1
# [19] = target: GalNAc(b1-4)GlcNAc6S
# Procedure, shortened: as §1
# [20] = target: GalNAc(b1-6)GalNAc
# Procedure, shortened: as §1
# [21] = target: GalNAc3S(b1-4)GlcNAc
# Procedure, shortened: as §1
# [22] = target: GalNAc3S(b1-4)GlcNAc3S
# Procedure, shortened: as §1
# [23] = target: GalNAc3S(b1-4)[Fuc(a1-3)]GlcNAc
# Procedure, shortened: as §1
# [24] = target: GalNAc4S6S(b1-4)GlcNAc
# Procedure, shortened: as §1
# [25] = target: GalNAc6S(b1-4)GlcNAc
# Procedure, shortened: as §1
# [26] = target: Glc(a1-4)Glc
# Procedure, shortened: as §1
# [27] = target: Glc(a1-4)Glc(a1-4)Glc(a1-4)Glc
# Procedure, shortened: as §1
# [28] = target: Glc(a1-6)Glc(a1-6)Glc
# Procedure, shortened: as §1
# [29] = target: Glc(a1-6)Glc(a1-6)Glc(a1-6)Glc
# Procedure, shortened: as §1
# [30] = target: Glc(b1-4)Glc
# Procedure, shortened: as §1
# [31] = target: Glc(b1-6)Glc
# Procedure, shortened: as §1
# [32] = target: GlcA(b1-3)Gal
# Procedure, shortened: as §1
# [33] = target: GlcA(b1-3)GlcNAc
# Procedure, shortened: as §1
# [34] = target: GlcA(b1-6)Gal
# Procedure, shortened: as §1
# [35] = target: GlcA3S(b1-3)Gal(b1-4)GlcNAc(b1-2)Man
# Procedure, shortened: as §1
# [36] = target: GlcA3S(b1-3)Gal(b1-4)GlcNAc(b1-3)Gal(b1-4)Glc
# Procedure, shortened: as §1
# [37] = target: GlcNAc(a1-3)Gal(b1-4)GlcNAc
# Procedure, shortened: as §1
# [38] = target: GlcNAc(a1-4)Gal(b1-3)GlcNAc
# Procedure, shortened: as §1
# [39] = target: GlcNAc(a1-4)Gal(b1-4)GalNAc
# Procedure, shortened: as §1
# [40] = target: GlcNAc(a1-4)Gal(b1-4)GlcNAc
# Procedure, shortened: as §1
# [41] = target: GlcNAc(a1-4)Gal(b1-4)GlcNAc(b1-3)Gal(b1-4)Glc
# Procedure, shortened: as §1
# [42] = target: GlcNAc(a1-4)Gal(b1-4)GlcNAc(b1-3)Gal(b1-4)GlcNAc
# Procedure, shortened: as §1
# [43] = target: GlcNAc(a1-4)Gal(b1-4)GlcNAc(b1-3)Gal(b1-4)GlcNAc(b1-3)Gal(b1-4)GlcNAc
# Procedure, shortened: as §1
# [44] = target: GlcNAc(a1-4)Gal(b1-4)GlcNAc(b1-3)Gal(b1-4)[Fuc(a1-3)]GlcNAc(b1-3)Gal(b1-4)[Fuc(a1-3)]GlcNAc
# Procedure, shortened: as §1
# [45] = target: GlcNAc(a1-6)Gal(b1-4)GlcNAc
# Procedure, shortened: as §1
binder,measurement,setting,value
GS7807F-bth-514-18-514 (Bacteroides thetaiotaomicron) (protein) AGSCTGNFEEYNTNQFQIHEADPSTLMKSMIETIVNIQQNDSQMMDQMVGQLGGYLTCANVWSGTNFGTFNQSDAWNAGPWNTNFEKIYGNFFQIQEATNESGHYYAFARMIRAITMLRVADCYGPMPYSQVKKGNFYVAYDTEEQVYKNIMEDFASAANVLYNYYKDTNGNAPLASNDPVFSGNYANWARLANSMRLRVAIRISTAYPEMAKENAEAAASHEAGLIEANNDNAMMDCGSQTNPYQLAAVSWGDLRVNANIVDYMNGYGDPRMSKYFNHSTFTGHTQEYVGMRSGEDGFAKSDVAGYSIPAITGTSKLLVFCAAETAFLRAEGKLKNWSVGNKSAKEYYEEGIKLSMEQYGTTMPDNYLTNTEKPTVSHNNDPRGHAYTISNTVAVAWNDNNEEENLQRIITQKWIANYPLGLEAWAEYRRTGYPELYPCIDNLSPSGVDSKRGMRRLRFPYTEVQNNHSNYQQGVSYLKNGGPDNEATDLSWGKTN,glycan array binding signal (z-score),[1],0.513
same,glycan array binding signal (z-score),[2],0.547
same,glycan array binding signal (z-score),[3],0.008
same,glycan array binding signal (z-score),[4],0.338
same,glycan array binding signal (z-score),[5],0.13
same,glycan array binding signal (z-score),[6],0.618
same,glycan array binding signal (z-score),[7],0.982
same,glycan array binding signal (z-score),[8],-0.359
same,glycan array binding signal (z-score),[9],1.86
same,glycan array binding signal (z-score),[10],1.81
same,glycan array binding signal (z-score),[11],0.774
same,glycan array binding signal (z-score),[12],-0.68
same,glycan array binding signal (z-score),[13],-0.179
same,glycan array binding signal (z-score),[14],0.27
same,glycan array binding signal (z-score),[15],1.66
same,glycan array binding signal (z-score),[16],-0.675
same,glycan array binding signal (z-score),[17],-0.383
same,glycan array binding signal (z-score),[18],0.017
same,glycan array binding signal (z-score),[19],0.521
same,glycan array binding signal (z-score),[20],-0.841
same,glycan array binding signal (z-score),[21],-0.814
same,glycan array binding signal (z-score),[22],-0.834
same,glycan array binding signal (z-score),[23],0.749
same,glycan array binding signal (z-score),[24],-0.849
same,glycan array binding signal (z-score),[25],-0.256
same,glycan array binding signal (z-score),[26],-0.674
same,glycan array binding signal (z-score),[27],-0.429
same,glycan array binding signal (z-score),[28],-0.912
same,glycan array binding signal (z-score),[29],-0.652
same,glycan array binding signal (z-score),[30],-0.68
same,glycan array binding signal (z-score),[31],-0.876
same,glycan array binding signal (z-score),[32],0.37
same,glycan array binding signal (z-score),[33],-0.624
same,glycan array binding signal (z-score),[34],0.611
same,glycan array binding signal (z-score),[35],-0.771
same,glycan array binding signal (z-score),[36],-0.835
same,glycan array binding signal (z-score),[37],-0.915
same,glycan array binding signal (z-score),[38],-0.124
same,glycan array binding signal (z-score),[39],0.105
same,glycan array binding signal (z-score),[40],-0.867
same,glycan array binding signal (z-score),[41],-0.587
same,glycan array binding signal (z-score),[42],-0.023
same,glycan array binding signal (z-score),[43],-0.902
same,glycan array binding signal (z-score),[44],-0.016
same,glycan array binding signal (z-score),[45],-0.667

# Copied from the results shown for reference:
binder,measurement,setting,value
GS7807F-bth-514-18-514 (Bacteroides thetaiotaomicron) (protein) AGSCTGNFEEYNTNQFQIHEADPSTLMKSMIETIVNIQQNDSQMMDQMVGQLGGYLTCANVWSGTNFGTFNQSDAWNAGPWNTNFEKIYGNFFQIQEATNESGHYYAFARMIRAITMLRVADCYGPMPYSQVKKGNFYVAYDTEEQVYKNIMEDFASAANVLYNYYKDTNGNAPLASNDPVFSGNYANWARLANSMRLRVAIRISTAYPEMAKENAEAAASHEAGLIEANNDNAMMDCGSQTNPYQLAAVSWGDLRVNANIVDYMNGYGDPRMSKYFNHSTFTGHTQEYVGMRSGEDGFAKSDVAGYSIPAITGTSKLLVFCAAETAFLRAEGKLKNWSVGNKSAKEYYEEGIKLSMEQYGTTMPDNYLTNTEKPTVSHNNDPRGHAYTISNTVAVAWNDNNEEENLQRIITQKWIANYPLGLEAWAEYRRTGYPELYPCIDNLSPSGVDSKRGMRRLRFPYTEVQNNHSNYQQGVSYLKNGGPDNEATDLSWGKTN,glycan array binding signal (z-score),[20],-0.841
same,glycan array binding signal (z-score),[21],-0.814
